Paper PMC11982498 (Redox Biology, 2025)

What was measured:
[1] = system: BAX gene transcription in brain of APP/PS1 mice; assay: Real-time RT-PCR of mice brain, BAX; format: in vivo; conditions: 10 mg/kg
Method: (§1) Five months old male APP/PS1 mice, weighing 25–33 g, were purchased from Guangdong Medical Laboratory Animal Center and housed in the Laboratory Animal Center of Sun Yat-sen University (Guangzhou, China) for experimentation. […] The mice were housed in a specific pathogen-free environment with a controlled temperature of 22 ± 1 °C and a 12-h dark/light cycle. The mice were fed with a standard diet, and 30 mice were randomly divided into 6 groups (N = 5). […] Behavioral experiments were then conducted, and tissue specimens were collected for biochemical analysis.
(§2) ^a -∆∆Ct = -[(Ct value of genes in treated sample - Ct value of genes in control) - (Ct value of β-actin in treated sample - Ct value of β-actin in control)]. ^b F: The relative expression fold.
(§3) Following sample homogenization, chloroform was added, and the solution was allowed to have phase separation into an upper aqueous layer (containing RNA), an interphase, and a lower organic layer (containing DNA and proteins). RNA was precipitated from the aqueous phase using isopropanol, while DNA was precipitated from the aqueous-organic interphase using ethanol.
(§4) Quantitative real-time polymerase chain reaction (qRT-PCR) was performed using the 2× RealStar SYBR Mixture (GenStar, Cat# A301-10, Guangzhou, China) on a LightCycler 480 II real-time PCR system (Roche, USA). Data were analyzed using the 2^−ΔΔCt method. […]

[2] = system: BCL-2 gene transcription in brain of APP/PS1 mice; assay: Real-time RT-PCR of mice brain, BCL-2; format: in vivo; conditions: 10 mg/kg
Method: as §1, §2, §3, §4

With `COc1cc2c(cc1OC)C(=O)C(CC1CCN(Cc3ccccc3)CC1)C2` (centres unmarked) [Donepezil, donepezil, reference compound] as the compound, how does the “-∆∆Ct, BAX” value [1] read?
The value was -0.07.

And the “-∆∆Ct, BCL-2” value [2]?
Its value is 0.26.
